Binding data for one molecule are collected here from patent EP4800027A1.

No constants are given. Whether binding was seen depends on the method and setting. Binding calls can cover weak binding; strength is not graded here.

In the assay the target is RKL1 (leucine-rich repeat receptor-like kinase). The assay is described as follows: yeast two-hybrid, firefly luciferase complementation and bimolecular fluorescence complementation, FIG. 5.

B1: GbVIPR1L protein (virus-induced proline-rich protein 1-like protein) (protein)
chain: MIPQQMKEAFQSYIAFKSDSSPFSRMAKSTPALSEFDNYHKAKVSSLEEPSKSKSKTIKELVTMSSKLDSLEKGESFLREKIQAQKLKYNDKPDSLRQSNGEAFQKYLEDTTKNLIKAMPNLKANLVLHA
For the molecule B1, the binding entry is “binds”.
